Reference: PMC4679366 (European journal of medicinal chemistry, 2014)

How the values were obtained:
HepG2 liver cells = experiment: HepG2 toxicity assay; assay type: cell-based; details: Homo sapiens, HepG2, read-out: HepG2 IC50
P. falciparum = details: read-out: P. falciparum IC50; cited from earlier work

O=C(CCCCCCC(=O)Nc1ccccc1)NO [SAHA, suberoylanilide hydroxamic acid]
IC50 (HepG2 liver cells): 1490 nM | IC50 (P. falciparum): 109 to 309 nM
